# Laboratory results published in patent publication US20260284208A1, “SYSTEM” (Oxford University Innovation Limited, priority 2023, published 2026).
# This continues a long series; more values of the same kind are listed elsewhere.
# Tested on: library of 8,380 IKZF3 degrons (ZF-eGFP/mCherry reporter) in Jurkat cells
# Assay: Pooled library screen (FACS, NGS, limma voom LogFC of positive vs negative read counts)
# Type: cell-based, human
# Protocol: A library of 8,380 IKZF3 degrons was cloned into pLVX-Sprout to create the eGFP/mCherry protein degradation reporter plasmid pool. A lentivirus pool was then generated using the Lenti-X lentiviral vector production method.
# Jurkat cells were transduced at a multiplicity of infection of <0.3 with the lentivirus vector library in order to maximise the number of cells with a single integration. Transductions were carried out in 6 well TC-treated cell culture dishes (Falcon) with 3×10^6 cells per well. Cells were incubated for 2 days at 37° C. and 5% CO2 before the supernatant was removed and replaced with fresh media. 6 days post-transduction, mCherry+ cells were isolated via FACS using the FACS Aria Fusion (BD) in a buffer containing PBS (Gibco), 2 mM EDTA (Gibco), 25 mM HEPES (Sigma) and 1% BSA (Sigma). 8 days later, cells were treated with DMSO or a thalidomide analog for 18 hours at 37° C. and 5% CO2. mCherry+GFPlow and NOT(mCherry+GFPlow) cells were sorted by FACS using the FACS Aria Fusion (BD). DMSO treated cells were used to set the mCherry+GFPlow gate and dead cells were excluded from sorting by staining cells with 1 μg/mL DAPI (ThermoFisher). gDNA was isolated using the Maxwell RSC 48 (Promega). gDNA from cells that were unsorted and untreated were also isolated to determine the library representation on the day of compound treatment. Throughout the screen >600× coverage of the library was maintained. 3 biological replicates were carried out with a new transduction taking place each time.
# A two-step PCR was used where the first PCR (PCR1) amplified the integrated degron sequence from gDNA and the second PCR (PCR2) added Illumina adaptors and barcodes to permit multiplexing. See Supp F for PCR1 and PCR2 primers. Q5 Hot Start High-Fidelity 2× Master Mix (New England Biolabs) was used for both PCRs. Sufficient gDNA was amplified in PCR1 in order to maintain >600× coverage and amplicons were purified using solid phase reversible immobilization (SPRI) beads (Beckman Coulter). Purified PCR1 products were analysed on the Tapestation 4200 (Agilent) to confirm purity prior to proceeding to PCR2. Sufficient PCR1 product was amplified in PCR2 in order to maintain >600× coverage and amplicons were run on a 2% agarose TAE gel. Target bands were excised and purified using the NucleoSpin Gel and PCR Clean-up Kit (Machery Nagel). Amplicons were analysed on the Tapestation 4200 and quantified using Qubit dsDNA HS kit (ThermoFisher). PCR products were pooled and sequenced as paired-reads on the NovaSeq (Illumina) using a SP2 200 cycles kit (Illumina).
# Count distributions, percentage of read mapping, library coverage and replicate correlation per sample were assessed for QC purposes.
# To carry out the library screen, we used the same plasmid construct as in our earlier flow cytometry assays, but pooling all 8,380 mutants together into one Jurkat population, ensuring a copy number of one plasmid per cell (FIG. 4B). […] These GFP-negative cells were then separated from the remaining GFP-positive population using fluorescence activated cell sorting (FACS). These two populations were then sequenced and the relative abundance of every mutant in both populations compared to provide a log FC value for each mutant sequence. This value indicated how frequently a sequence is observed in the GFP-negative population relative to the GFP-positive population, and therefore how effective a degron it is for that particular IMID compound.
structure (smiles),measurement,setting,value
O=C1CCC(N2C(=O)c3ccc(N4CCOCC4)cc3C2=O)C(=O)N1 (stereo not drawn) [B03],B03_logFC,"Degron-ID 3000, SEQ ID NO 4258, 46F_47Q_49N_50I_52G_53A_54A_55F_67L_",2.278
same,B03_logFC,"Degron-ID 3007, SEQ ID NO 4377, 46F_47Q_49N_50I_52G_53A_54I_55F_67L_",2.073
same,B03_logFC,"Degron-ID 3012, SEQ ID NO 3765, 46F_47Q_49N_50I_52G_53A_54P_55F_67L_",3.09
same,B03_logFC,"Degron-ID 3017, SEQ ID NO 4430, 46F_47Q_49N_50I_52G_53A_54V_55F_67L_",2.011
same,B03_logFC,"Degron-ID 3052, SEQ ID NO 4428, 46F_47Q_49N_50V_52G_53A_54P_55F_67L_",2.012
same,B03_logFC,"Degron-ID 3060, SEQ ID NO 3746, 46F_47Q_49P_50I_52G_53A_54A_55F_67L_",3.129
same,B03_logFC,"Degron-ID 3061, SEQ ID NO 3774, 46F_47Q_49P_50I_52G_53A_54C_55F_67L_",3.057
same,B03_logFC,"Degron-ID 3065, SEQ ID NO 4392, 46F_47Q_49P_50I_52G_53A_54G_55F_67L_",2.05
same,B03_logFC,"Degron-ID 3067, SEQ ID NO 3684, 46F_47Q_49P_50I_52G_53A_54I_55F_67L_",3.259
same,B03_logFC,"Degron-ID 3068, SEQ ID NO 3803, 46F_47Q_49P_50I_52G_53A_54K_55F_67L_",3.001
same,B03_logFC,"Degron-ID 3071, SEQ ID NO 4318, 46F_47Q_49P_50I_52G_53A_54N_55F_67L_",2.179
same,B03_logFC,"Degron-ID 3074, SEQ ID NO 4390, 46F_47Q_49P_50I_52G_53A_54R_55F_67L_",2.053
same,B03_logFC,"Degron-ID 3075, SEQ ID NO 3880, 46F_47Q_49P_50I_52G_53A_54S_55F_67L",2.884
same,B03_logFC,"Degron-ID 3077, SEQ ID NO 3730, 46F_47Q_49P_50I_52G_53A_54V_55F_67L_",3.156
same,B03_logFC,"Degron-ID 3100, SEQ ID NO 3763, 46F_47Q_49P_50V_52G_53A_54A_55F_67L_",3.102
same,B03_logFC,"Degron-ID 3101, SEQ ID NO 3944, 46F_47Q_49P_50V_52G_53A_54C_55F_67L",2.768
same,B03_logFC,"Degron-ID 3105, SEQ ID NO 4412, 46F_47Q_49P_50V_52G_53A_54G_55F_67L_",2.029
same,B03_logFC,"Degron-ID 3107, SEQ ID NO 3737, 46F_47Q_49P_50V_52G_53A_54I_55F_67L_",3.148
same,B03_logFC,"Degron-ID 3108, SEQ ID NO 3883, 46F_47Q_49P_50V_52G_53A_54K_55F_67L",2.877
same,B03_logFC,"Degron-ID 3110, SEQ ID NO 4272, 46F_47Q_49P_50V_52G_53A_54M_55F_67L_",2.262
same,B03_logFC,"Degron-ID 3111, SEQ ID NO 4420, 46F_47Q_49P_50V_52G_53A_54N_55F_67L_",2.018
same,B03_logFC,"Degron-ID 3112, SEQ ID NO 3654, 46F_47Q_49P_50V_52G_53A_54P_55F_67L_",3.337
same,B03_logFC,"Degron-ID 3114, SEQ ID NO 4267, 46F_47Q_49P_50V_52G_53A_54R_55F_67L_",2.266
same,B03_logFC,"Degron-ID 3116, SEQ ID NO 3873, 46F_47Q_49P_50V_52G_53A_54T_55F_67L",2.891
same,B03_logFC,"Degron-ID 3117, SEQ ID NO 3761, 46F_47Q_49P_50V_52G_53A_54V_55F_67L_",3.106
same,B03_logFC,"Degron-ID 3172, SEQ ID NO 3667, 46F_47R_49D_50V_52G_53A_54P_55F_67L_",3.298
same,B03_logFC,"Degron-ID 3220, SEQ ID NO 4040, 46F_47R_49E_50V_52G_53A_54A_55F_67L",2.621
same,B03_logFC,"Degron-ID 3225, SEQ ID NO 4415, 46F_47R_49E_50V_52G_53A_54G_55F_67L_",2.025
same,B03_logFC,"Degron-ID 3292, SEQ ID NO 3826, 46F_47R_49N_50V_52G_53A_54P_55F_67L_",2.959
same,B03_logFC,"Degron-ID 3300, SEQ ID NO 4269, 46F_47R_49P_50I_52G_53A_54A_55F_67L_",2.263
same,B03_logFC,"Degron-ID 3332, SEQ ID NO 3866, 46F_47R_49P_50Q_52G_53A_54P_55F_67L",2.895
same,B03_logFC,"Degron-ID 3360, SEQ ID NO 4310, 46F_47S_49D_50I_52G_53A_54A_55F_67L_",2.191
same,B03_logFC,"Degron-ID 3374, SEQ ID NO 4246, 46F_47S_49D_50I_52G_53A_54R_55F_67L_",2.302
same,B03_logFC,"Degron-ID 3420, SEQ ID NO 3837, 46F_47S_49E_50I_52G_53A_54A_55F_67L_",2.948
same,B03_logFC,"Degron-ID 3434, SEQ ID NO 3868, 46F_47S_49E_50I_52G_53A_54R_55F_67L",2.894
same,B03_logFC,"Degron-ID 3435, SEQ ID NO 3921, 46F_47S_49E_50I_52G_53A_545_55F_67L",2.803
same,B03_logFC,"Degron-ID 3460, SEQ ID NO 3703, 46F_47S_49E_50V_52G_53A_54A_55F_67L_",3.207
same,B03_logFC,"Degron-ID 3461, SEQ ID NO 4261, 46F_47S_49E_50V_52G_53A_54C_55F_67L_",2.275
same,B03_logFC,"Degron-ID 3472, SEQ ID NO 4426, 46F_47S_49E_50V_52G_53A_54P_55F_67L_",2.013
same,B03_logFC,"Degron-ID 3475, SEQ ID NO 3924, 46F_47S_49E_50V_52G_53A_54S_55F_67L",2.799
same,B03_logFC,"Degron-ID 3480, SEQ ID NO 4282, 46F_47S_49N_50I_52G_53A_54A_55F_67L_",2.246
same,B03_logFC,"Degron-ID 3492, SEQ ID NO 4273, 46F_47S_49N_50I_52G_53A_54P_55F_67L_",2.26
